Test results taken from the supplement of paper PMC3334620.
In all, about 33,000 sequences were measured (“E-score (-0.5 to 0.5)”: median about -0.0014, highest 2% from about 0.25 on). Some of the results follow.

What follows are sequences tested against T1, Cad1 (UniProt P24813) (assay: PBM E-score (8-mer binding enrichment) (E-score (-0.5 to 0.5)); higher = stronger / more preferred TF binding). Settings: protein concentration: 100 nM; construct: GST-full length.
T1 sequence: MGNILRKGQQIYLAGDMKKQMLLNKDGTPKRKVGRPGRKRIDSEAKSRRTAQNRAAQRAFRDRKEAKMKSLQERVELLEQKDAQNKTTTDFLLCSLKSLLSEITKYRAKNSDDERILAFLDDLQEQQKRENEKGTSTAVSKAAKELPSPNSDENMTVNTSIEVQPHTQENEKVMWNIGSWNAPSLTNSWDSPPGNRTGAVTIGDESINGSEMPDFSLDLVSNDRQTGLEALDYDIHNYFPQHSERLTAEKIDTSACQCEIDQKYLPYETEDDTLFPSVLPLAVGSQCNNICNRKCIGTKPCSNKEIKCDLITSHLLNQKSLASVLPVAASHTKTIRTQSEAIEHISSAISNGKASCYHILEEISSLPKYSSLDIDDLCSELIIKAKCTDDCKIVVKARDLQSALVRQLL
How it was run: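 Bound GST-tagged yeast transcription factors, applied at about 100-200 nM to double-stranded universal all-10-mer Agilent arrays, were detected with fluorescent anti-GST. Scans were normalised with masliner. A modified Wilcoxon-Mann-Whitney statistic, the E-score, was assigned to each ungapped eight-base word pooled with its reverse complement by the Universal PBM Analysis Suite.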
In the case of CGCACCTC, the “PBM E-score” value is reported as -0.104.
With AAGCTAGA the “PBM E-score” value was -0.0158.
In the case of GATTTCCA, the “PBM E-score” value is reported as 0.0565.
In the case of ATAGCTGA, the “PBM E-score” value is reported as -0.0845.
In the case of AAACCAGG, the “PBM E-score” value is reported as -0.0514.
For ACCCTCAC, the “PBM E-score” value was -0.0597.
In the case of CATGTTAC, the “PBM E-score” value is reported as 0.0475.
In the case of GTAGCAAA, the “PBM E-score” value is reported as 0.165.
CAGTTGCA was tested, and the “PBM E-score” value was 0.00906.
For CACTCTTC, the “PBM E-score” value was -0.185.
ATCGGCAT was tested, and the “PBM E-score” value was 0.156.
In the case of TAGCGTCA, the “PBM E-score” value is reported as -0.00814.
With CAGCCCCG the “PBM E-score” value was -0.0953.
In the case of CCATAGCC, the “PBM E-score” value is reported as -0.118.
For CCGGCCGA, the “PBM E-score” value was 0.017.
With CGACAGCC the “PBM E-score” value was -0.0619.
For AAGACATC, the “PBM E-score” value was -0.156.
In the case of CACGCAGG, the “PBM E-score” value is reported as 0.0223.
GTTAATGA was tested, and the “PBM E-score” value was -0.0254.
ATATAGAT was tested, and the “PBM E-score” value was 0.118.
For AACCCACG, the “PBM E-score” value was -0.0654.
For GTCGTGTA, the “PBM E-score” value was 0.0604.
In the case of TCACCCCA, the “PBM E-score” value is reported as -0.12.
AATATCCA was tested, and the “PBM E-score” value was 0.0727.
In the case of AGTATGAC, the “PBM E-score” value is reported as -0.0247.
CCGTCAAC was tested, and the “PBM E-score” value was -0.134.
AATCCACA was tested, and the “PBM E-score” value was 0.0931.
AGGTTGGG was tested, and the “PBM E-score” value was -0.0998.
For CACCCCAG, the “PBM E-score” value was -0.2.
With AAAATGTG the “PBM E-score” value was 0.193.
CCGTGATA was tested, and the “PBM E-score” value was -0.0452.
With GAGTGGAC the “PBM E-score” value was -0.0117.
For GCGATGAC, the “PBM E-score” value was 0.138.
With CATCGAGA the “PBM E-score” value was -0.0411.
For CAATGGTG, the “PBM E-score” value was -0.158.
In the case of ATGGTTCC, the “PBM E-score” value is reported as 0.177.
With CGACCGAG the “PBM E-score” value was -0.0641.
For GTGGGAGA, the “PBM E-score” value was -0.172.
For CAACTTGC, the “PBM E-score” value was -0.129.
In the case of AAAATTGC, the “PBM E-score” value is reported as 0.0977.
In the case of AGCTCTGG, the “PBM E-score” value is reported as -0.0343.
With CGCGCACA the “PBM E-score” value was 0.257.
AAAATGTC was tested, and the “PBM E-score” value was 0.203.
With ACTCCGAC the “PBM E-score” value was -0.105.
With ATGCTAAC the “PBM E-score” value was 0.0246.
CTCAGAAG was tested, and the “PBM E-score” value was -0.145.
ACGGGTGG was tested, and the “PBM E-score” value was -0.137.
With CATAACAA the “PBM E-score” value was 0.211.
With CCACCTAA the “PBM E-score” value was 0.0241.
For AGACCGCT, the “PBM E-score” value was -0.0931.
In the case of GAAATAGC, the “PBM E-score” value is reported as 0.0972.
With CAACCCGG the “PBM E-score” value was -0.18.
With TGATCAAA the “PBM E-score” value was 0.148.
In the case of ATAGTAAA, the “PBM E-score” value is reported as 0.225.
In the case of AACCGCCA, the “PBM E-score” value is reported as -0.127.
In the case of CCAGTCAC, the “PBM E-score” value is reported as -0.0168.
CGTTACCC was tested, and the “PBM E-score” value was -0.3.
For CTGCGGCA, the “PBM E-score” value was 0.011.
With ACCCAAGA the “PBM E-score” value was 0.0411.
AGCGAGCC was tested, and the “PBM E-score” value was 0.00865.
For AGAGAGTC, the “PBM E-score” value was -0.201.
In the case of GACGTACA, the “PBM E-score” value is reported as 0.00672.
In the case of GTTTCAGA, the “PBM E-score” value is reported as -0.00273.
CCGTCGGC was tested, and the “PBM E-score” value was -0.18.
With ACTGACGG the “PBM E-score” value was -0.146.
For ACTCCCTC, the “PBM E-score” value was -0.201.
In the case of ACCATTGG, the “PBM E-score” value is reported as 0.0804.
In the case of GACGCATA, the “PBM E-score” value is reported as 0.0784.
CATGAATA was tested, and the “PBM E-score” value was -0.0221.
In the case of AACGCCTA, the “PBM E-score” value is reported as -0.0958.
For ACACACTC, the “PBM E-score” value was 0.209.
With AGTCCTCG the “PBM E-score” value was -0.113.
In the case of AGGCCTGC, the “PBM E-score” value is reported as -0.0625.
In the case of GGAGCGGA, the “PBM E-score” value is reported as -0.0843.
In the case of CGGGAACG, the “PBM E-score” value is reported as -0.0309.
In the case of ACCCCGAG, the “PBM E-score” value is reported as -0.149.
For ATCACACA, the “PBM E-score” value was 0.14.
In the case of CATCGACA, the “PBM E-score” value is reported as -0.0756.
In the case of AAGTGTGG, the “PBM E-score” value is reported as 0.00595.
For AAGTCGCC, the “PBM E-score” value was -0.249.
For GTGGGCAA, the “PBM E-score” value was -0.145.
With GCGCTAAC the “PBM E-score” value was 0.139.
In the case of CCTGGACC, the “PBM E-score” value is reported as 0.0377.
With ACCCCACG the “PBM E-score” value was -0.251.
ATCGGAAC was tested, and the “PBM E-score” value was 0.166.
In the case of CAGGCAAA, the “PBM E-score” value is reported as 0.0957.
